In the supplement of paper PMC10735217:
Structures can show the parent of a compound that is named as a salt. This is one part of the list. This data set is noisy: repeats of one test often differ as much as different tests do.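 In a drug-repurposing library screen, luminescence reads luciferase driven by eight TEAD-binding elements, stably integrated into human kidney-derived cells. Compounds scoring over five robust Z scores above the plate mean are called hits.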

Test system: HEK293A TEAD-LUC reporter
Assay: TEAD-luciferase reporter activity (YAP activation), robust Z score vs plate; higher = stronger YAP/TEAD activation
Conditions: 24 h

SMILES | TEAD-luciferase reporter activity (compound concentration: 200 nM) | TEAD-luciferase reporter activity (compound concentration: 2 uM) | TEAD-luciferase reporter activity (compound concentration: 10 uM)
CCOC(=O)O[C@]1(C(=O)COC(=O)CC)CC[C@H]2[C@@H]3CCC4=CC(=O)C=C[C@]4(C)[C@H]3[C@@H](O)C[C@@]21C [prednicarbate] | inactive: -1.38 | active: 5.74 | inactive: 2.71
Clc1ccc2oc(C(c3ccccc3Cl)n3ccnc3)cc2c1 (stereo not given) | inactive: -1.52 | inactive: -0.905 | inactive: -0.633
Cc1nc(C)c(P2(=O)O[C@H](C)C[C@@H](C)O2)c(-c2cccc([N+](=O)[O-])c2)c1C(=O)OCCN1CCN(C(c2ccccc2)c2ccccc2)CC1 (stereo not given in full) | inactive: -0.632 | inactive: -0.845 | inactive: 1.05
CNC(=O)c1c(I)c(NC(C)=O)c(I)c(C(=O)O)c1I | inactive: 0.702 |  | inactive: 1.17
CNC(=O)c1c(I)c(NC(C)=O)c(I)c(C(=O)O)c1I [Iotalamic acid] |  | inactive: -1.04 | 
C[C@]12CC[C@@H]3c4ccc(OC(=O)c5cccnc5)cc4CC[C@H]3[C@@H]1CC[C@@H]2OC(=O)c1cccnc1 [Estradiol-dinicate] | inactive: -1.98 | inactive: 0.63 | inactive: -0.181
CCCCC[C@H](O)/C=C/[C@H]1[C@H](O)CC(=O)[C@@H]1C/C=C\CCCC(=O)O [Prostaglandin E2] | inactive: 1.06 | inactive: 1.23 | inactive: 2.04
CS(=O)(=O)c1ccc(C(CC2CCCC2)C(=O)Nc2cnc(C(O)CO)cn2)cc1Cl (stereo not given) | inactive: -0.895 | inactive: 0.229 | inactive: 0.647
Clc1ccc([C@@H]2CNCc3cc(-c4ccc5ncnn5c4)ccc32)cc1Cl | inactive: -0.792 | inactive: 0.405 | inactive: 0.222
COc1ccc2c(c1)n(CCN)c(=O)n2C(=O)[C@@H]1C[C@H](C)CC[C@H]1C(C)C | inactive: -1.67 | inactive: 1.02 | inactive: -0.446
C[N+](C)(C)CCO [choline chloride] | inactive: -0.875 | inactive: -0.228 | inactive: -1.18
C[C@@H](Oc1cc(NS(=O)(=O)N2CCC2)nc(SCc2cccc(F)c2F)n1)[C@@H](O)CO | inactive: 2.04 | inactive: -0.228 | inactive: 1.19
COc1cc2[nH]c(=O)c3nn(C(OC(=O)OC(C)C)C(C)C)nc3c(=O)c2cc1OC (stereo not given) | inactive: -0.884 | inactive: -0.896 | inactive: 2.86
CCN1C(=O)NC(c2ccccc2)C1=O (stereo not given) [Ethotoin] | inactive: -1.48 | inactive: -0.281 | inactive: 0.298
COc1cccc(OC)c1C(=O)N[C@@H]1C(=O)N2[C@@H]1SC(C)(C)[C@@H]2C(=O)O [Methicillin sodium salt] | inactive: -1.65 |  | inactive: -0.897
COc1cccc(OC)c1C(=O)N[C@@H]1C(=O)N2[C@@H]1SC(C)(C)[C@@H]2C(=O)O [Meticillin sodium] |  | inactive: 0.456 | 
CCN1CCC(c2cccc(S(C)(=O)=O)c2F)CC1 | inactive: -0.837 | inactive: -1.13 | inactive: -0.882
CC1=C(C(=O)OCCN(C)Cc2ccc(F)cc2)C(c2cccc3c2OCO3)C(C(=O)OC(C)C)=C(C)N1 (stereo not given) | inactive: 1.76 | inactive: -1.47 | inactive: 0.454
COc1ccccc1OC1CCN(CCCC(=O)c2ccc(F)cc2)C1 (stereo not given) | inactive: -0.0284 | inactive: -0.466 | inactive: 1.04
CC(C)c1ccc2c(c1)C(N1CCN(CCO)CC1)Cc1ccc(F)cc1S2 (stereo not given) [isofloxythepin] | inactive: -2.67 | inactive: -1.06 | inactive: 1.39
CCOC[C@]12Cc3cnn(-c4ccc(F)cc4)c3C=C1CCN(S(=O)(=O)c1ccc(C(F)(F)F)cc1)C2 | inactive: -0.825 | inactive: 0.6 | inactive: 0.574
CCSCc1ccc2c(c1)c1c3c(c4c5cc(CSCC)ccc5n5c4c1n2[C@H]1C[C@](O)(C(=O)OC)[C@]5(C)O1)CNC3=O | inactive: 2.05 | active: 13.9 | active: 19.3
COc1cc(C(=O)O)ccc1NC(=O)[C@@H]1N[C@@H](CC(C)(C)C)[C@](C#N)(c2ccc(Cl)cc2F)[C@H]1c1cccc(Cl)c1F | inactive: -0.34 | inactive: -1.19 | inactive: 2.27
COc1ccc(C(=O)N2CCC3(Cc4ccccc4NC3=O)C2)cc1 (stereo not given) | inactive: 4.6 |  | inactive: -1.07
COc1cccc(-c2cccc(C(=O)N3CCCC3C(=O)NCc3ccc4c(c3)OCO4)c2)c1 (stereo not given) | inactive: 0.0169 |  | inactive: -1.28
CC1(C)OC[C@@H](COC(=O)CCc2ccc(OC[C@@H](O)CNCCNC(=O)N3CCOCC3)cc2)O1 [landiolol hydrochloride] | inactive: -0.979 | inactive: 0.384 | inactive: 3.37

Exported as tab-separated lines: part of the list above.
SMILES	TEAD-luciferase reporter activity (compound concentration: 200 nM)	TEAD-luciferase reporter activity (compound concentration: 2 uM)	TEAD-luciferase reporter activity (compound concentration: 10 uM)
CS(=O)(=O)c1ccc(C(CC2CCCC2)C(=O)Nc2cnc(C(O)CO)cn2)cc1Cl (stereo not given)	inactive: -0.895	inactive: 0.229	inactive: 0.647
Clc1ccc([C@@H]2CNCc3cc(-c4ccc5ncnn5c4)ccc32)cc1Cl	inactive: -0.792	inactive: 0.405	inactive: 0.222
COc1ccc2c(c1)n(CCN)c(=O)n2C(=O)[C@@H]1C[C@H](C)CC[C@H]1C(C)C	inactive: -1.67	inactive: 1.02	inactive: -0.446
COc1cc2[nH]c(=O)c3nn(C(OC(=O)OC(C)C)C(C)C)nc3c(=O)c2cc1OC (stereo not given)	inactive: -0.884	inactive: -0.896	inactive: 2.86
CCN1C(=O)NC(c2ccccc2)C1=O (stereo not given) [Ethotoin]	inactive: -1.48	inactive: -0.281	inactive: 0.298
COc1cccc(-c2cccc(C(=O)N3CCCC3C(=O)NCc3ccc4c(c3)OCO4)c2)c1 (stereo not given)	inactive: 0.0169		inactive: -1.28
